Publication PMC3760768
No constants are given. Whether binding was seen depends on the method and setting. Tags and fused reporters may be left off the sequences shown.

By UniProt entry, the sequences of proteins in these tests, tags left out.
UniProt Q39057: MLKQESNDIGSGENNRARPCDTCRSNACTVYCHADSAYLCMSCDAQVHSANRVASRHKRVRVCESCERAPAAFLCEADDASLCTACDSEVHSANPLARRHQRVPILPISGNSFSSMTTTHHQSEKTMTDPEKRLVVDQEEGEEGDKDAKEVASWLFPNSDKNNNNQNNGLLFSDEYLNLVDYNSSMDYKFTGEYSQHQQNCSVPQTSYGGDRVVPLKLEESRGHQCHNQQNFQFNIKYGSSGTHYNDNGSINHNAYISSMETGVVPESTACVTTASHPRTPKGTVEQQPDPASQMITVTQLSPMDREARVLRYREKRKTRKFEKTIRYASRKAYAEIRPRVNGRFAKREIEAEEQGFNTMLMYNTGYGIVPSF

Biological target: T1, AGL18, full length, fused with GAL4-BD (Arabidopsis) (UniProt Q9M2K8)
T1 sequence: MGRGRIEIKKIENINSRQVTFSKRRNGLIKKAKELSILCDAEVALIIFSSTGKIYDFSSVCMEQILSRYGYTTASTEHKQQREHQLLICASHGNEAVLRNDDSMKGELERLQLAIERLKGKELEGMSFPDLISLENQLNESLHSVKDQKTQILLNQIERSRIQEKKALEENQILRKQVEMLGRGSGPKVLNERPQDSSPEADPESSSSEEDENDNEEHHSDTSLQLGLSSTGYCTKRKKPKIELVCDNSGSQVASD
Assay: two-hybrid; Matchmaker GAL4 Two-Hybrid System 3 (Clontech), yeast strain AH109; growth on selective media lacking leucine, tryptophan and histidine

binding: no binding
Sequence: CONSTANS (CO), full length, fused with GAL4-AD (from UniProt Q39057 1-373)
